From PubChem BioAssay AID1117319 (Southern Research Institute, 2015)
Out of some 260,000 compounds screened, about 1,500 (0.58%) were called active. Inconclusive results, whose numbers are uncertain, are shown with a selection of clear calls.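 How the source made its calls: active means inhibition above a set limit at one or more doses, reproduced on every date tested; inconclusive means results disagree between test dates, or hit never tested in dose response; inactive means the rest.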

Amino acid sequences for entries named in this document (tags omitted). A change or cut given only in a name is not applied to a line headed by its entry.
UniProt P69720: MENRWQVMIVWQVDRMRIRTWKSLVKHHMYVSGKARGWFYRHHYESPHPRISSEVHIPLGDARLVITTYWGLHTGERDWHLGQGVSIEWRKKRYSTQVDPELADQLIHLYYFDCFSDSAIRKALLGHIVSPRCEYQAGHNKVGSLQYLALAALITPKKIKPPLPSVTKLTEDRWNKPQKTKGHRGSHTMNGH
UniProt P69721: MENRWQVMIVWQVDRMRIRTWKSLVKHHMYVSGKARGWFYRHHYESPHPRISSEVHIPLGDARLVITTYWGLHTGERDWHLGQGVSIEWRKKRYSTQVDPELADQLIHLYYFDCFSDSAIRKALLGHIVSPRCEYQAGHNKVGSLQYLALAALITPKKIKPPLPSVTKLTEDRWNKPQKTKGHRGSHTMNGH
UniProt P69722: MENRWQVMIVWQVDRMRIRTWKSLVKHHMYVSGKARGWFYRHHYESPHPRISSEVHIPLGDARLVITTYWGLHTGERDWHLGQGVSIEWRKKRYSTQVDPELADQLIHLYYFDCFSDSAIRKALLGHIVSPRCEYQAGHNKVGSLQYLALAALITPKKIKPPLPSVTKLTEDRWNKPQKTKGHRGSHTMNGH
UniProt P69723: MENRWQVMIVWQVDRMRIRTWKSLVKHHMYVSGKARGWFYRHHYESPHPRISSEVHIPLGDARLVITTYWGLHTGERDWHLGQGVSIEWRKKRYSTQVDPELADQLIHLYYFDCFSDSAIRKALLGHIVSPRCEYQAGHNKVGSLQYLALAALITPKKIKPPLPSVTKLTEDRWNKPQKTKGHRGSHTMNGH
UniProt Q9HC16: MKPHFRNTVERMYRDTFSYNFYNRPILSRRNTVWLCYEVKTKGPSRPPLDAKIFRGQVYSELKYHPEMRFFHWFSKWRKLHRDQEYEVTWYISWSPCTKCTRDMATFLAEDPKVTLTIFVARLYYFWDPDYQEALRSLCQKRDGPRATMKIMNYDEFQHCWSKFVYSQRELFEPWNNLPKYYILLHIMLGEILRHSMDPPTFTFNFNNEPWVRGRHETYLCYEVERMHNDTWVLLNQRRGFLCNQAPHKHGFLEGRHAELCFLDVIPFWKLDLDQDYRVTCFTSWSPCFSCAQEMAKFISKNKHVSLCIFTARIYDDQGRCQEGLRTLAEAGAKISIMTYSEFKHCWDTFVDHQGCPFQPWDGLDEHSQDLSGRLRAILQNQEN

Target: Virion infectivity factor (Human immunodeficiency virus type 1 group M subtype B (isolate BH10)) + Virion infectivity factor (Human immunodeficiency virus type 1 group M subtype B (isolate BRU/LAI)) + Virion infectivity factor (Human immunodeficiency virus type 1 group M subtype B (isolate PCV12)) + Virion infectivity factor (Human immunodeficiency virus type 1 group M subtype B (isolate HXB2)) + DNA dC->dU-editing enzyme APOBEC-3G (Homo sapiens) (UniProt P69720+P69721+P69722+P69723+Q9HC16)
Test: inhibitors of Vif binding to APOBEC3G peptide, primary screen, biochemical, TR-FRET, GST-Vif 1-94, biotin-A3G peptide, dose response retest (AID 1117319);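 further: Vif residues 1-94 fused to GST binding biotinylated APOBEC3G peptide 110-148; 0% = full assay without inhibitor and 100% = GST in place of GST-Vif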
Settings: active compounds read high

| SMILES | inhibition |
| --- | --- |
| CCOC(=O)c1cnc(-n2[nH]c(C)cc2=O)[nH]c1=O | inconclusive: 43.6% |
| CNC(=O)c1nc[nH]c1C(=O)NC | inconclusive: 26% |
| CCOC(=O)c1nnc2ccnn2c1N | inconclusive: 35.3% |
| COc1ccc(C2C(C(=O)NCc3cccnc3)c3ccccc3C(=O)N2C)cc1OC (stereo unspecified) | inconclusive: 43.2% |
| COc1ccc(NC(=O)Nc2ccccc2C)c(OC)c1 | inconclusive: 42.1% |
| NC(=O)C1CCN(C2=C(NS(=O)(=O)c3ccc(Cl)cc3)C(=O)c3ccccc3C2=O)CC1 | inactive: 10.6% |
| Cc1ccc(CN=c2c([N+](=O)[O-])nn(-c3cccc(C)c3)n2O)cc1 | inconclusive: 56% |
| CCOC(=O)C(CC)Sc1nc2c(cnn2-c2ccccc2)c(=O)[nH]1 (stereo unspecified) | inconclusive: -5.09% |
| CCOc1ccc(C2=C(C=C(C#N)C#N)C(c3ccccc3)c3ccccc3O2)cc1 (stereo unspecified) | inconclusive: 38.9% |
| CCOC(=O)c1c(C)[nH]c(C(=O)OC(C)C(=O)Nc2ccccc2OC)c1C (stereo unspecified) | inconclusive: 33.4% |
| O=C1OC(c2ccc(Cl)cc2)=N/C1=C\C=C\c1ccco1 | inconclusive: 60.3% |
| O=C(O)c1cccc(-c2nnn(Cc3ccccc3Cl)n2)c1 | inconclusive: 34.1% |
| NC(=O)C1=C[C@@H](C2CCCCC2)C[C@@H](OCCCCO)O1 | inconclusive: 50.7% |
| O=C(NCCCN1CCN(CCCNC(=O)c2ccc3c(c2)OCO3)CC1)c1ccc2c(c1)OCO2 | inconclusive: 44.4% |
| O=C1C=CC(=O)N1CCCCCCCCCCN1C(=O)C=CC1=O | inactive: -0.57% |
| O=C1C2CC=C(Cl)CC2C(=O)N1CCc1ccccc1 (stereo unspecified) | inconclusive: 45.5% |
| Cc1ccc2nc(NCc3ccco3)c(C=NCc3ccco3)c(=O)n2c1 | inconclusive: 35.2% |
| CCCc1cc(-c2n[nH]c(=S)n2Cc2ccccc2)cs1 | inconclusive: 37.1% |
| Cc1ccc(C2=NN(C(=O)CCC(=O)O)C(c3ccc4c(c3)OCO4)C2)cc1 (stereo unspecified) | inconclusive: 34.3% |
| CCn1c(C)cc(/C=C2\NC(=O)N(CC(=O)Nc3ccc(F)cc3)C2=O)c1C | inconclusive: 36.6% |
| CCOc1ccc(C2CC(=O)NC(SC)=C2C#N)cc1 (stereo unspecified) | inactive: -1.81% |
| O=C(NCC1CCCO1)c1ccc2nc(N3CCCCC3)sc2c1 (stereo unspecified) | inactive: 1.36% |
| COc1ccc(C(=O)NC2=C(C#N)CCC2)cc1OC | inconclusive: 60.1% |

| SMILES | inhibition |
| --- | --- |
| C/C(=N/NC(=O)c1ccc2nc[nH]c2c1)c1cccs1 | inconclusive: 38.5% |
| Fc1ccc2c(c1)c1n[nH]c(=S)nc1n2CCc1ccccc1 | inactive: 0.89% |
| COc1ccccc1N1CSC2=C(C#N)C(c3ccc(SC)cc3)CC(=O)N2C1 (stereo unspecified) | inconclusive: 38% |
| Cc1cc2cc(C)c(NCCNC(=O)c3ccccc3Cl)nc2cc1C | inconclusive: 43.7% |
| Cc1c(F)cccc1NC(=O)CSCC(=O)Nc1ccccc1 | inactive: 4.77% |
| Cc1cc(NS(=O)(=O)c2ccc(Nc3nc(-c4sc(C)nc4C)cs3)cc2)no1 | inconclusive: 38.7% |
| Cc1ccc(N(NC(=O)C(O)(c2ccccc2)c2ccccc2)C(=O)CCl)cc1 | inconclusive: 39.9% |
| CC1SC(=Nc2ccccc2)N(S(=O)(=O)c2ccccc2)C1=O (stereo unspecified) | inconclusive: 37.8% |
| Oc1cccc2c(NC(=S)Nc3ccc(SC(F)F)cc3)cccc12 | inconclusive: 42.6% |
| Cc1ccc(OCCCC(=O)Nc2ccc(S(N)(=O)=O)cc2)cc1 | inactive: -3.06% |
| Cc1oc(-c2ccccc2)nc1CS(=O)CC(=O)O (stereo unspecified) | inconclusive: 2.51% |
| COCCN1Cc2cccc(C(=O)Nc3ccc(S(=O)(=O)N4CCCCC4)cc3)c2C1=O | inconclusive: 39.1% |
| Cc1cc(NC(=O)c2cnn3cccnc23)no1 | inconclusive: 36.4% |
| Cc1ccc[n+](Cc2ccc([N+](=O)[O-])cc2)c1 | inconclusive: 33.4% |
| CC(CCc1ccccc1)NC(=O)c1nnc(Cc2ccc(Cl)cc2)o1 (stereo unspecified) | inactive: -1.14% |
| CCOC(=O)N1CCN(C(=O)c2cc3cc(Br)ccc3oc2=O)CC1 | inconclusive: 44% |
| Nc1ccc2c3c(ccc([N+](=O)[O-])c13)CC2 | inactive: -1.18% |
| CCS(=O)(=O)Nc1ccc(C(=O)CC2(O)C(=O)Nc3ccc(Br)cc32)cc1 (stereo unspecified) | inconclusive: 62.1% |
| C=CCc1ccccc1OCC(O)CN1CCN(c2ccc(OC)cc2)CC1 (stereo unspecified) | inconclusive: 51% |
| CC1NC(=O)NC1CCCCCC(=O)Nc1ccc(F)cc1 (stereo unspecified) | inconclusive: 34.4% |
| Cc1ccc(C)c(S(=O)(=O)N2CCN(CC(=O)NC(=O)NCc3ccco3)CC2)c1 | inconclusive: 35.3% |
| CCOC(=O)c1ccc(N=C2C(=S)N(c3ccc(C(=O)OCC)cc3)C(=N)N2/N=C/c2ccccc2)cc1 | inconclusive: 49.7% |
| S=c1[nH]nc(-c2ccccc2Cl)n1/N=C/C=C/c1ccco1 | inconclusive: 44.5% |

Random excerpt: 5 records from the list, in no set order.

| SMILES | inhibition |
| --- | --- |
| NC(=O)C1=C[C@@H](C2CCCCC2)C[C@@H](OCCCCO)O1 | inconclusive: 50.7% |
| CCCc1cc(-c2n[nH]c(=S)n2Cc2ccccc2)cs1 | inconclusive: 37.1% |
| COc1ccccc1N1CSC2=C(C#N)C(c3ccc(SC)cc3)CC(=O)N2C1 (stereo unspecified) | inconclusive: 38% |
| NC(=O)C1CCN(C2=C(NS(=O)(=O)c3ccc(Cl)cc3)C(=O)c3ccccc3C2=O)CC1 | inactive: 10.6% |
| O=C(NCCCN1CCN(CCCNC(=O)c2ccc3c(c2)OCO3)CC1)c1ccc2c(c1)OCO2 | inconclusive: 44.4% |

Following part.

| SMILES | inhibition |
| --- | --- |
| COc1ccccc1-c1cn(S(=O)(=O)c2ccc(C)cc2)nc1N | inconclusive: 60.1% |
| O=C(N/N=C/c1ccncc1)c1cc([N+](=O)[O-])cc([N+](=O)[O-])c1O | inconclusive: 46.2% |
| Cc1ccc(S(=O)(=O)NCCSCc2ccco2)cc1 | inactive: -0.39% |
| COCCCN1C(=O)c2ccc(C(=O)NCc3ccco3)cc2C1=O | inactive: 1.46% |
| COC(=O)COc1ccc(S(=O)(=O)NCc2cccnc2)cc1C | inconclusive: 44.1% |
| COc1ccc2c(c1)c(CC(=O)Nc1ccccc1OC)c(C)n2C(=O)c1ccc(Cl)cc1 | inconclusive: 43.5% |
| C/C(=N\Nc1ccc(Cl)c(C(=O)O)c1)c1ccccn1 | inactive: -6.06% |
| COc1ccc(NC(=S)NCCc2ccccc2)c(OC)c1 | inactive: 18.1% |
| COC(=O)c1cccc(S(=O)(=O)N2CCC(NC(=O)Nc3cccc(F)c3)CC2)c1 | inconclusive: 37.4% |
| NC(=O)CC(NC(=O)c1ccccc1)c1ccc(NCCOc2ccccc2)c([N+](=O)[O-])c1 (stereo unspecified) | inconclusive: 50.8% |
| O=C(Cn1cnc2c(oc3ccccc32)c1=O)NCc1ccccc1 | inconclusive: 39.1% |
| COc1cccc(CN2CCN(C3CCN(c4cccc(C)c4C)CC3)CC2CCO)c1 (stereo unspecified) | inconclusive: 43.9% |
| O=C(CCCOc1ccccc1)N1CCCc2ccccc21 | inconclusive: 40.6% |
| Cc1ccc2[nH]c3c(NCCCN4CCCC4=O)ncnc3c2c1 | inconclusive: 45.6% |
| NC(=O)C1CCN(C(=O)CCc2nc3ccccc3c(=O)[nH]2)CC1 | inconclusive: 37.6% |
| CC1NC(=O)NC1CCCCCC(=O)NCCc1ccccc1 (stereo unspecified) | inactive: 31.4% |
| CC(=S)c1c(C)cc2cc(C)ccn12 | inconclusive: 53.5% |
| Cc1cccn2c(=O)c(C=Nc3ccc(Cl)cc3)c(NCCO)nc12 | inconclusive: 41.3% |
| COc1ccc(OC)c(NC(=S)NCc2ccc(S(N)(=O)=O)cc2)c1 | inconclusive: 54.7% |
| Nc1c(C(=O)N/N=C/c2cccnc2)oc2nc(-c3ccccc3)cc(-c3ccco3)c12 | inconclusive: 46.4% |
| Cc1cnc(C)c(N2CCN(Cc3nc(-c4cccc(F)c4F)oc3C)CC2)n1 | inconclusive: 35.7% |
| Cc1cc(Cl)c(S(=O)(=O)N2CCSCC2)cc1OCC(=O)NC1CCCCC1 | inconclusive: 55% |
| Cc1ccc(C)c(N2CCN(C(=O)c3cc4sccc4n3C)CC2)c1 | inconclusive: 46.6% |

| SMILES | inhibition |
| --- | --- |
| O=C(CSc1nnc(COc2ccccc2Cl)o1)NC(=O)NCc1ccco1 | inconclusive: 56.8% |
| Cc1onc(-c2c(F)cccc2Cl)c1C(=O)NCc1ccco1 | inactive: 0.03% |
| COC(=O)c1cccnc1NC(=S)NC1CCCCC1 | inconclusive: 36.8% |
| Cc1occc1C(=O)N(C)CC1CCCN(CCc2ccccc2F)C1 (stereo unspecified) | inactive: 7.6% |
| O=C(CSCc1c(Cl)cccc1Cl)Nc1ccccc1C(=O)N1CCOCC1 | inconclusive: 35.1% |
| O=C(Nc1ccc(N2CCOCC2)cc1)c1cnsn1 | inconclusive: 39.7% |
| O=C(NCc1ccc(F)cc1)C(Cc1ccccc1)NS(=O)(=O)c1cccs1 (stereo unspecified) | inconclusive: 33.3% |
| Cc1ccc(S(=O)(=O)Nc2cccc(-n3cnnn3)c2)cc1 | inactive: -12.1% |
| COc1nccnc1NS(=O)(=O)c1ccc(NC(=S)NC(=O)c2ccc(F)cc2)cc1 | inconclusive: 44.3% |
| CCOC(=O)c1c(NC(=O)c2cc(C)on2)c2cc([N+](=O)[O-])ccc2n1C | inconclusive: 59.9% |
| COc1cc2cc(C(c3nnnn3C3CCCC3)N3CCc4ccccc43)c(=O)[nH]c2cc1OC (stereo unspecified) | inconclusive: 52% |
| CC(C)c1cc(=O)oc2c3c4c(cc12)CCCN4CCC3 | inactive: 13.8% |
| O=c1oc(-c2ccccc2)nc2sc3c(c12)CCC3 | inconclusive: 57.4% |
| CCCCC[n+]1ccn(-c2nc3ccccc3nc2[N-]S(=O)(=O)c2ccccc2)c1 | inconclusive: 45.9% |
| CCc1ccc2oc(=O)cc(CN(C)Cc3ccccc3)c2c1 | inconclusive: 45.9% |
| COC(=O)COC(=O)CC(CC(N)=O)c1ccccc1 (stereo unspecified) | inactive: -2.81% |
| Nc1n[nH]c2cc(=O)n(-c3ccc(Cl)cc3)nc12 | inconclusive: 34.8% |
| CCOC(=O)C1=C(COC(=O)c2ccc(Cl)nc2)NC(=O)NC1C (stereo unspecified) | inactive: 5.43% |
| O=c1cc(N2CCOCC2)c2ccccc2o1 | inconclusive: 33% |
| Cc1cc2nc(C)n(CCCNC(=O)Nc3ccc(C#N)cc3)c2cc1C | inactive: -0.77% |
| COc1ccc(/C=C2\CC/C(=C\c3ccc(OC)c(OC)c3)C2=O)cc1OC | inactive: -3.91% |
| CCOc1ccccc1N(C(=O)Nc1ccc(Cl)cc1)C1=NCCS1 | inconclusive: 34.8% |
